We go through three sequences from patent publication US5811533.

Holding throughout (assay): filter binding
In data set [1] the test system is VEGF165 (recombinant human vascular endothelial growth factor, 165 aa form) (Homo sapiens). The following applies: purified recombinant protein; protein details: gift from N. Ferrara, Genentech; single-stranded DNA; variant of ssDNA 23.
Data set [2] addresses plasminogen activator inhibitor I (UniProt P05121). The following applies: specificity, label: 32P.
The test system of another data set is thrombin. The following applies: specificity, label: 32P.

Turning to “GGGCATCTAACCCAGACCTACCGGAACGTTATCGCTTGTG [23t]”, the equilibrium dissociation constant (Kd) in data set [1] is greater than 0.2 µM.
With “GGCCGGUAGUCGCAUGGCCCAUCGCGCCCGG [ligand 100t]”, the Kd (in data set [2] (variant of ligand 100); in the data set on thrombin (variant of ligand 100)) was greater than 10 µM throughout.
Consider “GGAAGCUUGAUGGGUGACACACGUCAUGCCGAGCU [ligand 44t]”, for which the Kd (in data set [2] (variant of ligand 44); in the data set with thrombin (variant of ligand 44)) was greater than 10 µM throughout.

As usually defined, the Kd is the constant that tells how readily two partners part at equilibrium.
